Source: publication PMC6949295 (2020)
Results are given in words; binding and its absence hold for the method and conditions named. In cells and extracts the contact can be indirect. Some entries that bind do so weakly or less than the wild type. One block for each substance: values may come before it.

Chains of the proteins cited; added tags and fusions are not shown. Lines headed by an entry give the natural chain unless they say otherwise; changes in a name come on top.
UniProt O54922: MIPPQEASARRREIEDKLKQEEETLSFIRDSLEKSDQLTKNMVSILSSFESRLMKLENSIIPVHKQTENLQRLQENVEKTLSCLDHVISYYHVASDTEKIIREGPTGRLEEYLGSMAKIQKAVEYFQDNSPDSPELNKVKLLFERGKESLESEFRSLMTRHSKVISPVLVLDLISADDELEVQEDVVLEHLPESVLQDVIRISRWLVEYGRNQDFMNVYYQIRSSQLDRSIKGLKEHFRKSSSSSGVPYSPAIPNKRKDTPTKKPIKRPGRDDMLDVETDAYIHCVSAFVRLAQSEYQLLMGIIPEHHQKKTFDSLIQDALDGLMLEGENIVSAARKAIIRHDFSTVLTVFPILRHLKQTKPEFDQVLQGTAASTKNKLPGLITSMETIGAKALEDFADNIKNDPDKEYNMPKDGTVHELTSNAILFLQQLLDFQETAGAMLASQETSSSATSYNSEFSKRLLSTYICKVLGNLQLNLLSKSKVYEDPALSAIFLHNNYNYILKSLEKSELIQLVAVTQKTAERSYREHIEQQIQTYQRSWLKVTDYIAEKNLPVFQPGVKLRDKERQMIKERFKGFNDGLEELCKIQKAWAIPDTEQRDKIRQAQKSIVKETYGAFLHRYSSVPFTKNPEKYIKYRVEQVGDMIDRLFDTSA
UniProt Q62825: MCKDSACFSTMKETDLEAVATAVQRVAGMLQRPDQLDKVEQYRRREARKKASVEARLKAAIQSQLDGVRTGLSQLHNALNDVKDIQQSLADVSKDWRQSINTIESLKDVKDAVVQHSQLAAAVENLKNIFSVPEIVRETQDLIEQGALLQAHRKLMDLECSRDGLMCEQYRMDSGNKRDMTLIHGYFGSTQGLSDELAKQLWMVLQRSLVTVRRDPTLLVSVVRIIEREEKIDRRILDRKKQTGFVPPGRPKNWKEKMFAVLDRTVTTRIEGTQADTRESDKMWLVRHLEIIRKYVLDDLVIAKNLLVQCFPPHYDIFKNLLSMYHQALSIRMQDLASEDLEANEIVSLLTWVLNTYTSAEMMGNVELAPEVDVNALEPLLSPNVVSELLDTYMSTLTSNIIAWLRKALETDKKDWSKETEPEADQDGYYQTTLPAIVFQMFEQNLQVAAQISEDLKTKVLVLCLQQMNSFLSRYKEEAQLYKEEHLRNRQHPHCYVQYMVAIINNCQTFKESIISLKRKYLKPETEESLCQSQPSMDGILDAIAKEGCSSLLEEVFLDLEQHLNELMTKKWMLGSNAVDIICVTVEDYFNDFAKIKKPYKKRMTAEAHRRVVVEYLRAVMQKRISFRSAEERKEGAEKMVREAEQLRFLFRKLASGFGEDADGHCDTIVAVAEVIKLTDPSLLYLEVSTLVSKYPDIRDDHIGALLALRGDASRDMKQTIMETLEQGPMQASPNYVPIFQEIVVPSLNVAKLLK
UniProt Q62824: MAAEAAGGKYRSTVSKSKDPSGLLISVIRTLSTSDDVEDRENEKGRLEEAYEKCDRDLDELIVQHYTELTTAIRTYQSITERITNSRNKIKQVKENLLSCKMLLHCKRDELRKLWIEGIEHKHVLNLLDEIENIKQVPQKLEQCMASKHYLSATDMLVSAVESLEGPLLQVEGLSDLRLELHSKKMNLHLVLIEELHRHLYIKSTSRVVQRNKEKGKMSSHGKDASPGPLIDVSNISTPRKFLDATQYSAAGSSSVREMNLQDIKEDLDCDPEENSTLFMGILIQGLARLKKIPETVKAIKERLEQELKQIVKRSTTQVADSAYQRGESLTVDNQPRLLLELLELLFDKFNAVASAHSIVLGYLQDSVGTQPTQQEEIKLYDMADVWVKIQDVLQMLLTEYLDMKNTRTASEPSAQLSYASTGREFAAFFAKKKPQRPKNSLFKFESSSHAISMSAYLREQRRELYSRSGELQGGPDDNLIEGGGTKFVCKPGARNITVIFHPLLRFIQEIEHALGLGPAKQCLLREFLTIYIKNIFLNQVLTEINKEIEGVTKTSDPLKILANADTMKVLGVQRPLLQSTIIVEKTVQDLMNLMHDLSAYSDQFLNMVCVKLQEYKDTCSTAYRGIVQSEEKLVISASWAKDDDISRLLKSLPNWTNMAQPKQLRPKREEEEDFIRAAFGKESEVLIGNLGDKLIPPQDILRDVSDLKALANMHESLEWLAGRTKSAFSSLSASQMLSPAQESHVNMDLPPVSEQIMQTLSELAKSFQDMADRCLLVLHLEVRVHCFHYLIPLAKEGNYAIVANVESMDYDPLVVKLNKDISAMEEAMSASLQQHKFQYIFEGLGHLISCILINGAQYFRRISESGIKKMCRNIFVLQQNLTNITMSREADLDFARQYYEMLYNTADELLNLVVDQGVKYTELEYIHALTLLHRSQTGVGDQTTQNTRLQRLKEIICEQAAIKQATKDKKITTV
UniProt O54924: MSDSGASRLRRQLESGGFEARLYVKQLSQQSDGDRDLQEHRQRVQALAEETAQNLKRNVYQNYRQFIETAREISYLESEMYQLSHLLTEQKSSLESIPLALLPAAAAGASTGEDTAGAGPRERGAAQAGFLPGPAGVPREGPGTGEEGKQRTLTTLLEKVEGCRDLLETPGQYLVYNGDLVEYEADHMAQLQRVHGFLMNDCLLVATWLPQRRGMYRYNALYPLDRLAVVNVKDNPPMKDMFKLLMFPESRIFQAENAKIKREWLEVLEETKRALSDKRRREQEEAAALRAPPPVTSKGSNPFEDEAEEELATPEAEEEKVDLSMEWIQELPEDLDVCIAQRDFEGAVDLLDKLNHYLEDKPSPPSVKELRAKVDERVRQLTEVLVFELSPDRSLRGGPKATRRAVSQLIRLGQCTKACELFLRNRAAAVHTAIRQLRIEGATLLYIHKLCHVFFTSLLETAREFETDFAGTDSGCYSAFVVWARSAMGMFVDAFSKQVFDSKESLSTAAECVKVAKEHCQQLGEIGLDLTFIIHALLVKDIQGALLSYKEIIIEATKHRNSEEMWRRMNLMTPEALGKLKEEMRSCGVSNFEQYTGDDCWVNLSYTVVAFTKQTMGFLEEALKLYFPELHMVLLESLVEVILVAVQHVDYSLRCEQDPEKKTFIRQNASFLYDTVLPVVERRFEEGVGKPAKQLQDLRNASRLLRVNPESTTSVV

Experiments:
[1] = target: Exo70 wild type, HA-tagged and Flag-tagged copies co-expressed (rat) (UniProt O54922); experiment: co-IP; 293T cells co-transfected with HA-tagged and Flag-tagged Exo70 (wild type or mutant), in the presence or absence of Myc-ULK1
[2] = target: Exo70(S47A), HA-tagged and Flag-tagged copies co-expressed (rat) (UniProt O54922); experiment: as above
[3] = target: Exo70(S47D/S89D), HA-tagged and Flag-tagged copies co-expressed (rat) (UniProt O54922); experiment: as above
[4] = target: Exo70(S59A), HA-tagged and Flag-tagged copies co-expressed (rat) (UniProt O54922); experiment: as above
[5] = target: Exo70(S59D/S89D), HA-tagged and Flag-tagged copies co-expressed (rat) (UniProt O54922); experiment: as above
[6] = target: Exo70(S89A), HA-tagged and Flag-tagged copies co-expressed (rat) (UniProt O54922); experiment: as above
[7] = target: Exo70(S89D), HA-tagged and Flag-tagged copies co-expressed (rat) (UniProt O54922); experiment: as above
[8] = target: Exo70-3A (S47A/S59A/S89A), HA-tagged and Flag-tagged copies co-expressed (rat) (UniProt O54922); experiment: as above
[9] = target: Exo70-3D (S47D/S59D/S89D), HA-tagged and Flag-tagged copies co-expressed (rat) (UniProt O54922); experiment: as above
Exo70-Flag (rat) = Exo70-Flag (rat) (UniProt O54922); experiment: co-IP; 293T cells transfected with Exo70-Flag or Exo70(3D)-Flag together with HA-Sec6, HA-Sec8 or HA-Exo84

Substance: Exo70(S59D/S89D), HA-tagged and Flag-tagged copies co-expressed (from UniProt O54922 1-653)
binding [5]: binds

Substance: Exo70(S89A), HA-tagged and Flag-tagged copies co-expressed (from UniProt O54922 1-653)
binding [6]: binds

Substance: Exo70-3D (S47D/S59D/S89D), HA-tagged and Flag-tagged copies co-expressed (from UniProt O54922 1-653)
binding [9]: binds weakly

Substance: HA-Sec6 (from UniProt Q62825 1-755)
binding (Exo70-Flag (rat)): binds

Substance: HA-Sec8 (from UniProt Q62824 1-975)
binding (Exo70-Flag (rat)): binds

Results, then the substance that gave them:

binding [1]: binds
Substance: Exo70 wild type, HA-tagged and Flag-tagged copies co-expressed (from UniProt O54922 1-653)

binding [2]: binds
Substance: Exo70(S47A), HA-tagged and Flag-tagged copies co-expressed (from UniProt O54922 1-653)

binding [3]: binds
Substance: Exo70(S47D/S89D), HA-tagged and Flag-tagged copies co-expressed (from UniProt O54922 1-653)

binding [4]: binds
Substance: Exo70(S59A), HA-tagged and Flag-tagged copies co-expressed (from UniProt O54922 1-653)

binding [7]: binds
Substance: Exo70(S89D), HA-tagged and Flag-tagged copies co-expressed (from UniProt O54922 1-653)

binding [8]: binds
Substance: Exo70-3A (S47A/S59A/S89A), HA-tagged and Flag-tagged copies co-expressed (from UniProt O54922 1-653)

binding (Exo70-Flag (rat)): binds
Substance: HA-Exo84 (from UniProt O54924 1-716)
